Results are given in words; binding and its absence hold for the method and conditions named.

Amino acid sequences for entries named in this document (tags omitted). A change or cut given only in a name is not applied to a line headed by its entry.
UniProt P29469: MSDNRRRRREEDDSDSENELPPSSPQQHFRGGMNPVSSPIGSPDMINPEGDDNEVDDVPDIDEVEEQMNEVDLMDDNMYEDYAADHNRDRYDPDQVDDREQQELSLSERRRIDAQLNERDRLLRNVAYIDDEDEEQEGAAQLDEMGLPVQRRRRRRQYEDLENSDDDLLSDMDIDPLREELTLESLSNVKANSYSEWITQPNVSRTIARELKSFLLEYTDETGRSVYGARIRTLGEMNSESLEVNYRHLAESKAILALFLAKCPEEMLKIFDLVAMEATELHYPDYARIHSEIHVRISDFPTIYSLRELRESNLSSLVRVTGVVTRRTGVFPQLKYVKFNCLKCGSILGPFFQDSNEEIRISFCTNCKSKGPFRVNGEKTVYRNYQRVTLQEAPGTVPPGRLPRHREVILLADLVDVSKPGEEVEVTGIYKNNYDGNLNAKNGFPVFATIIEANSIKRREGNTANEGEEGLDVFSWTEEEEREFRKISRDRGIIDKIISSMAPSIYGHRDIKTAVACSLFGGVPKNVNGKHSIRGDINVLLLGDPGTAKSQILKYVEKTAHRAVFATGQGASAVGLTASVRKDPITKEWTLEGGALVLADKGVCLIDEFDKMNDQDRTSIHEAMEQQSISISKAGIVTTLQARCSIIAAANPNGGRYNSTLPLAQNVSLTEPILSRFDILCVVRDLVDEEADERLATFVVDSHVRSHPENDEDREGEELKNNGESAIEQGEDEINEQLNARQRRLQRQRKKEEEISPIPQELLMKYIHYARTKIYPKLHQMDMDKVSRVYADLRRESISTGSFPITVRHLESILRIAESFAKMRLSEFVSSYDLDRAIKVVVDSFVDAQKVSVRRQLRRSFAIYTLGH
UniProt P21951: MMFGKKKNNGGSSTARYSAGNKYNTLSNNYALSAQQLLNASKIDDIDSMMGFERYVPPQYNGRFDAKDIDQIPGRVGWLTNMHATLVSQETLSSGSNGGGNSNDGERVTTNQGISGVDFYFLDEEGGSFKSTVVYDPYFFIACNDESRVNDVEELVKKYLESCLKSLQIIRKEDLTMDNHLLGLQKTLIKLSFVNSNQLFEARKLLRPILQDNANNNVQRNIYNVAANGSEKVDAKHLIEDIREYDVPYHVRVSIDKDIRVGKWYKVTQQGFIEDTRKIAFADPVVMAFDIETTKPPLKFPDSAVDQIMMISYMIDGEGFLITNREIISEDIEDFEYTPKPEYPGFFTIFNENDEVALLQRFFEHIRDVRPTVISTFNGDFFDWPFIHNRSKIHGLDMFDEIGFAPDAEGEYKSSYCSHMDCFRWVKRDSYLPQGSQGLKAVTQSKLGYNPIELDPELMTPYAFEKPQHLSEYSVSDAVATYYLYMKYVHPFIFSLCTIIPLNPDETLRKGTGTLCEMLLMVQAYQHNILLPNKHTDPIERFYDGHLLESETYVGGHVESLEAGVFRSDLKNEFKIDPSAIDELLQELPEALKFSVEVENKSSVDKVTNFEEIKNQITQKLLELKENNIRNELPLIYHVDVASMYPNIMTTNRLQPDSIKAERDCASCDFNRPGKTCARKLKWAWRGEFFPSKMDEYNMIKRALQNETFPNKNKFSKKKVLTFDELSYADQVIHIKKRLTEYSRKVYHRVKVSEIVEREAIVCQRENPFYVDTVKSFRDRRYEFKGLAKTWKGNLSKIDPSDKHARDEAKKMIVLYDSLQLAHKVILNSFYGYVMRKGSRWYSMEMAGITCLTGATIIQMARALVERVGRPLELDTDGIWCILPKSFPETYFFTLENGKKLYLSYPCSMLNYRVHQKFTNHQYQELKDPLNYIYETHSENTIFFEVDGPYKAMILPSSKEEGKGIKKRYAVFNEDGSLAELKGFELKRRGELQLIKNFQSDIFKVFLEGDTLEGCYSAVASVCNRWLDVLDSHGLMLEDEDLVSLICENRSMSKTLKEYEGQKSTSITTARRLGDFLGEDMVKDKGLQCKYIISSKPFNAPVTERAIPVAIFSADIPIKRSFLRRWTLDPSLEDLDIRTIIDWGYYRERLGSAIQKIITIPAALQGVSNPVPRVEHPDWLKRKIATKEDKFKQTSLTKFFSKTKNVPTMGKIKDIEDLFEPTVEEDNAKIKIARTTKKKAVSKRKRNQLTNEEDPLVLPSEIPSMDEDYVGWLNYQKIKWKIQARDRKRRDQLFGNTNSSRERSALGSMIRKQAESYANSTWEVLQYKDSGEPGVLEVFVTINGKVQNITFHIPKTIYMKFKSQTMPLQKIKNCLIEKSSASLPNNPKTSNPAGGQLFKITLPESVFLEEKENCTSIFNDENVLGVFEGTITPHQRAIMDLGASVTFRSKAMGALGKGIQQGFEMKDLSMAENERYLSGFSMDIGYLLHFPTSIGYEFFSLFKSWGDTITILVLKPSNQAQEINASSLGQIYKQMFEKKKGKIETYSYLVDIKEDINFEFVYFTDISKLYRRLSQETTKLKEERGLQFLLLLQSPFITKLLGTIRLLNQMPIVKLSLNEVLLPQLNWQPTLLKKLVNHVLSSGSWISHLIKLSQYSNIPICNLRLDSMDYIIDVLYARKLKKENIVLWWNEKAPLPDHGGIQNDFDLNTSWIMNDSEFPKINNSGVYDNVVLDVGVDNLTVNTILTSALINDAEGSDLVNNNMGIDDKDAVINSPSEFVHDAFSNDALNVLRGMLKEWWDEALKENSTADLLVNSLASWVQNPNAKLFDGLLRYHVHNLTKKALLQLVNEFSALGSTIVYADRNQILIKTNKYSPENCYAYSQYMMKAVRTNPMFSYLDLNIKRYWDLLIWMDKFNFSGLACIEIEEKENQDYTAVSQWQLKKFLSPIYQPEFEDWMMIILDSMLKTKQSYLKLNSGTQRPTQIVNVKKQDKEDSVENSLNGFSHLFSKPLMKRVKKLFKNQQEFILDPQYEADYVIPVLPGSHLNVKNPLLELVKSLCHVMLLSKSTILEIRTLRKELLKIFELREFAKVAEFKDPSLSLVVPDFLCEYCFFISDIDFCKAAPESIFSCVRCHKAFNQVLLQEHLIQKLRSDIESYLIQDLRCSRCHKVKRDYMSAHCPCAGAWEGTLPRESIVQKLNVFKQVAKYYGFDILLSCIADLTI
UniProt P49736: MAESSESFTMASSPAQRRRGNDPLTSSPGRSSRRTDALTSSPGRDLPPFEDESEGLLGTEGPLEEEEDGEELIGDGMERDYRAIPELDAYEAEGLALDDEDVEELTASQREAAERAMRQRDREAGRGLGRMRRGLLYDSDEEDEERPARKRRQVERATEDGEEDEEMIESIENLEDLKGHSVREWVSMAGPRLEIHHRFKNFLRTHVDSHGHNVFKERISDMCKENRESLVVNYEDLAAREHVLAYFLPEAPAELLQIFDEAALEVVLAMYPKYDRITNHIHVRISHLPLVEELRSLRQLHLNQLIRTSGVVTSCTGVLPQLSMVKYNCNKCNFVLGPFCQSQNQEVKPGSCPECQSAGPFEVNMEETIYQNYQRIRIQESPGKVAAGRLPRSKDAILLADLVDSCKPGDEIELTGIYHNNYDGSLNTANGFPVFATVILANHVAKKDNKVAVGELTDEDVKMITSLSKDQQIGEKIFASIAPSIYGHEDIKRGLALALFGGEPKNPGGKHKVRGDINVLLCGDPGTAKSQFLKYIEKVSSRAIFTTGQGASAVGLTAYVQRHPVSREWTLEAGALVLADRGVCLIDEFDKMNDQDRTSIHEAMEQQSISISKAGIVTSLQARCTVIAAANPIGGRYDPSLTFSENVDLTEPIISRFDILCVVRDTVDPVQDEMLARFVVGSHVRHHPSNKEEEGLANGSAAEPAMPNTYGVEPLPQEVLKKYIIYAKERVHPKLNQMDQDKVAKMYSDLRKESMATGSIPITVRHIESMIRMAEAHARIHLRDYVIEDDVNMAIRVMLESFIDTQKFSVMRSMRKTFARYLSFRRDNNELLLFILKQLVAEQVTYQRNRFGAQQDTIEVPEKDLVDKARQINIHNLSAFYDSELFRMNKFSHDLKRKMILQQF

We go through four molecules from paper PMC11405395 (The EMBO Journal, 2024).

For test [1], the target named is T1, Rrm3Δ86-110 (S. cerevisiae) (UniProt P38766).
T1 sequence: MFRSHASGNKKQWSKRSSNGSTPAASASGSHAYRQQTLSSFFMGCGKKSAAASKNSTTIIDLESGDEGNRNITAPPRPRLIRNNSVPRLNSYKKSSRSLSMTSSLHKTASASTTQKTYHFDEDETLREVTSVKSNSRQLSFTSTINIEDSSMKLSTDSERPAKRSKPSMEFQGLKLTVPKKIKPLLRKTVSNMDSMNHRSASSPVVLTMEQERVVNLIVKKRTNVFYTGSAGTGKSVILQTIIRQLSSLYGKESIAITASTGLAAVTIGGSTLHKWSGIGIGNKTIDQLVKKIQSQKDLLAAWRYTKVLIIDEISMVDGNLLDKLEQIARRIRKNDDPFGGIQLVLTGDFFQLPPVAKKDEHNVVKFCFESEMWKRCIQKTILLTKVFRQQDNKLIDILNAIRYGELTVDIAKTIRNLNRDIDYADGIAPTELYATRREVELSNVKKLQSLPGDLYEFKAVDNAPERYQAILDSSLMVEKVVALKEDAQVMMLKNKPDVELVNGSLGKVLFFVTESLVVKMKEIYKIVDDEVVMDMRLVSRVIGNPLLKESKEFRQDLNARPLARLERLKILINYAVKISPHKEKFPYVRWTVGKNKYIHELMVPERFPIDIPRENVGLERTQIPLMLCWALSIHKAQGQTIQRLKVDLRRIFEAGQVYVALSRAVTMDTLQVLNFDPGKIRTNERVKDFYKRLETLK
Description: co-IP; purified proteins mixed: 10 nM FLAG-Rrm3 with 15 nM Pol ε, 10 min on ice; anti-FLAG M2 magnetic beads; 25 mM Hepes-KOH pH 7.6, 400 mM KOAc, 0.02% NP-40-S, 0.1 mg/mL BSA, 1 mM DTT, 10 mM Mg(OAc)2; immunoblotting; both purified. Background: In western blotting, separated proteins are transferred to a membrane and probed.

The next test deals with T2, RTEL1ΔR875-V881 (human) (UniProt Q9NZ71).
T2 sequence: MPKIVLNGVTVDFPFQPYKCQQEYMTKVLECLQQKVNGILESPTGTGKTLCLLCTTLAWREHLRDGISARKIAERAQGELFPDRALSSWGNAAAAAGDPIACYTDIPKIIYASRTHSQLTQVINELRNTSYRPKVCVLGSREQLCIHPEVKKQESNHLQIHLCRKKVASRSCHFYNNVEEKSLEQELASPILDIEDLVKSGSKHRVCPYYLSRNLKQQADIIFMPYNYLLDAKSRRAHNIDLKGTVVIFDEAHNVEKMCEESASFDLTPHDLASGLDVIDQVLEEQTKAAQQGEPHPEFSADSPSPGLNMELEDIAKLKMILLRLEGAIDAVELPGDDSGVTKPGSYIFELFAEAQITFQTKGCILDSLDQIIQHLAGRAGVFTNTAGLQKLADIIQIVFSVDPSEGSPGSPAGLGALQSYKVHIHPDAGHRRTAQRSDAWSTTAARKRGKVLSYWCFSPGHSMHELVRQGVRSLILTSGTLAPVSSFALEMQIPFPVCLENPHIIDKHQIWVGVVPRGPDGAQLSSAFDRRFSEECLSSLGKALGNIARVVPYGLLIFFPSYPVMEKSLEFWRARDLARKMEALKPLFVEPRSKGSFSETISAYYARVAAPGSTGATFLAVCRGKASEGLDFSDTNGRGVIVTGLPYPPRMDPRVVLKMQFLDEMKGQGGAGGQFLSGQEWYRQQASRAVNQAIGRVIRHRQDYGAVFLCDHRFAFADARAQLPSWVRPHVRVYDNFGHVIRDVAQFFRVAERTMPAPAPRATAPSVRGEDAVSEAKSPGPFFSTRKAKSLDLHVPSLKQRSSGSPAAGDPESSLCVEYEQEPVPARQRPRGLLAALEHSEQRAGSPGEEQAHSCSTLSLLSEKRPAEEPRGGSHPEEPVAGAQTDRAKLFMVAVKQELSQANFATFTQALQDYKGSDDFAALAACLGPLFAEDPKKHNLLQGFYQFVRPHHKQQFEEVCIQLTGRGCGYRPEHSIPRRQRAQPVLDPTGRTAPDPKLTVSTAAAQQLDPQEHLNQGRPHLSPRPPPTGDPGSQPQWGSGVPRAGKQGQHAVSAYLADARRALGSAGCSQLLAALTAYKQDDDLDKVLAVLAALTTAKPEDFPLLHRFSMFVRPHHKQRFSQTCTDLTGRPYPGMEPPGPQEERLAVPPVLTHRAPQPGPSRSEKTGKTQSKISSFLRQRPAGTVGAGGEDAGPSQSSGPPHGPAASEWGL
The experiment in a line: co-IP; purified proteins mixed: 10 nM RTEL1-FLAG with 15 nM hsCMG, 10 min on ice; anti-FLAG M2 magnetic beads; 25 mM Hepes-KOH pH 7.6, 100 mM KOAc, 0.02% NP-40-S, 0.1 mg/mL BSA, 1 mM DTT, 10 mM Mg(OAc)2; immunoblotting; both purified.

In test [2] the target is CMGE (budding yeast CMG helicase, Cdc45-Mcm2-7-GINS, together with DNA polymerase ε) (S. cerevisiae) (UniProt P29469). The experiment in a line: co-IP; purified proteins mixed: 1–10 nM Rrm3/Rrm3N-BacPif1/BacPif1 with 15 nM CMG and 30 nM Pol ε, 10 min on ice; anti-Sld5 beads, 30 min 4 °C; 25 mM Hepes-KOH pH 7.6, 400 mM KOAc, 0.02% NP-40-S, 0.1 mg/mL BSA, 1 mM DTT, 10 mM Mg(OAc)2; immunoblotting; both purified.

For test [3] the target is unchanged. Description: condition: 10-fold higher protein concentrations than for Rrm3; co-IP; purified proteins mixed: 1–10 nM Rrm3/Rrm3N-BacPif1/BacPif1 with 15 nM CMG and 30 nM Pol ε, 10 min on ice; anti-Sld5 beads, 30 min 4 °C; 25 mM Hepes-KOH pH 7.6, 400 mM KOAc, 0.02% NP-40-S, 0.1 mg/mL BSA, 1 mM DTT, 10 mM Mg(OAc)2; immunoblotting; both purified.

As for “DNA polymerase ε (Pol2, Dpb2, Dpb3, Dpb4), S. cerevisiae (from UniProt P21951 1-2222; P24482 1-689; P27344 1-201; Q04603 1-196) (complex)”, the binding result in test [1] is on record as “no binding (tested: 10 nM Rrm3, 15 nM Pol ε)”. For the molecule “Homo sapiens CMG helicase (CDC45-MCM2-7-GINS) (from UniProt P49736 1-904; P25205 1-808; P33991 1-863; P33992 1-734; Q14566 1-821; P33993 1-719; O75419 1-566; Q9BRT9 1-223; Q14691 1-196; Q9Y248 1-185; Q9BRX5 1-216) (complex)”, in the test with RTEL1ΔR875-V881 (human), the binding result is “no binding (tested: 10 nM RTEL1, 15 nM hsCMG)”.

B1: Rrm3Δ86-110 (enzyme, S. cerevisiae, UniProt P38766 1-723, looked up)
chain: T1 sequence
notes: Plasmid pOO14; also called 3FLAG-TEV RRM3-∆86-110; source: S. cerevisiae strain yOO7, purified (anti-FLAG M2 resin, HiTrap heparin); not shown: 3FLAG, N-terminal, kept
Turning to B1, in test [2], the binding entry is “no binding”.

B2: Rrm3ΔN (Rrm3 lacking the first 193 amino acids) (domain or fragment, UniProt P38766 194-723)
chain: MEFQGLKLTVPKKIKPLLRKTVSNMDSMNHRSASSPVVLTMEQERVVNLIVKKRTNVFYTGSAGTGKSVILQTIIRQLSSLYGKESIAITASTGLAAVTIGGSTLHKWSGIGIGNKTIDQLVKKIQSQKDLLAAWRYTKVLIIDEISMVDGNLLDKLEQIARRIRKNDDPFGGIQLVLTGDFFQLPPVAKKDEHNVVKFCFESEMWKRCIQKTILLTKVFRQQDNKLIDILNAIRYGELTVDIAKTIRNLNRDIDYADGIAPTELYATRREVELSNVKKLQSLPGDLYEFKAVDNAPERYQAILDSSLMVEKVVALKEDAQVMMLKNKPDVELVNGSLGKVLFFVTESLVVKMKEIYKIVDDEVVMDMRLVSRVIGNPLLKESKEFRQDLNARPLARLERLKILINYAVKISPHKEKFPYVRWTVGKNKYIHELMVPERFPIDIPRENVGLERTQIPLMLCWALSIHKAQGQTIQRLKVDLRRIFEAGQVYVALSRAVTMDTLQVLNFDPGKIRTNERVKDFYKRLETLK
Consider B2, for which the binding result in test [3] was “no binding”.
